Measurements reported in PubChem BioAssay AID1508597 (Cure First, 2020)

- Purpose: 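Survival screen with siRNA in ovarian cancer cells derived from patients, with or without rucaparib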 (primary screen)
- System: human ovarian carcinoma lines grown from tumours: OCI-P5x (papillary serous) and OCI-C5x (clear cell)
- Knock-down reagent: siRNA pool against human genes, 1.25 pmol siRNA per well
- Time to read-out: 72 h or 96 h, depending on the cell culture
- Treatment: rucaparib 20 µM (about IC30) or vehicle, present until read-out
- Rucaparib or vehicle: Rucaparib
- Cell line: OCI-P5x (serous)
- Measurement: 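Luminescent ATP-based viability assay read 72 or 96 h after transfection, depending on culture, given as normalised percent viability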
- Scale: viability, normalised: higher = more viable cells remaining
- Rule for the call: 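Active when normalised viability falls below 80 percent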
- Calls: active = viability under 80%; inactive = viability 80% or more
Shown is a random part of the about 2,100 reagents, under one of the conditions tested. 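Calls flag viability under 80% in either arm, not effects specific to rucaparib; the reference for percent is not stated.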 Some reagents were tested in more than one well and are listed for each. Not given: the 100% reference.

The first 2 records, ahead of the listing:
{"target": "MAP3K19 (GeneID 80122)", "technical replicate": "1", "viability, normalised (%)": 84.9, "Outcome": "inactive"}
{"target": "MAP3K19 (GeneID 80122)", "technical replicate": "2", "viability, normalised (%)": 87.4, "Outcome": "inactive"}

The list itself, from the first entry:
{"target": "MAP3K19 (GeneID 80122)", "technical replicate": "1", "viability, normalised (%)": 84.9, "Outcome": "inactive"}
{"target": "MAP3K19 (GeneID 80122)", "technical replicate": "2", "viability, normalised (%)": 87.4, "Outcome": "inactive"}
{"target": "MAP3K19 (GeneID 80122)", "technical replicate": "3", "viability, normalised (%)": 92.6, "Outcome": "inactive"}
{"target": "TOPBP1 (GeneID 11073)", "technical replicate": "1", "viability, normalised (%)": 62.5, "Outcome": "active"}
{"target": "TOPBP1 (GeneID 11073)", "technical replicate": "2", "viability, normalised (%)": 58.8, "Outcome": "active"}
{"target": "TOPBP1 (GeneID 11073)", "technical replicate": "3", "viability, normalised (%)": 54.2, "Outcome": "active"}
{"target": "HK2 (GeneID 3099)", "technical replicate": "1", "viability, normalised (%)": 67.5, "Outcome": "active"}
{"target": "HK2 (GeneID 3099)", "technical replicate": "2", "viability, normalised (%)": 53.5, "Outcome": "active"}
{"target": "HK2 (GeneID 3099)", "technical replicate": "3", "viability, normalised (%)": 58.6, "Outcome": "active"}
{"target": "PRKAB2 (GeneID 5565)", "technical replicate": "1", "viability, normalised (%)": 90.2, "Outcome": "inactive"}
{"target": "PRKAB2 (GeneID 5565)", "technical replicate": "2", "viability, normalised (%)": 79.7, "Outcome": "active"}
{"target": "PRKAB2 (GeneID 5565)", "technical replicate": "3", "viability, normalised (%)": 79.9, "Outcome": "active"}
{"target": "PBK (GeneID 55872)", "technical replicate": "1", "viability, normalised (%)": 81.2, "Outcome": "inactive"}
{"target": "PBK (GeneID 55872)", "technical replicate": "1", "viability, normalised (%)": 39.3, "Outcome": "active"}
{"target": "PBK (GeneID 55872)", "technical replicate": "2", "viability, normalised (%)": 67.9, "Outcome": "active"}
{"target": "PBK (GeneID 55872)", "technical replicate": "2", "viability, normalised (%)": 66.1, "Outcome": "active"}
{"target": "PBK (GeneID 55872)", "technical replicate": "3", "viability, normalised (%)": 87.3, "Outcome": "inactive"}
{"target": "PBK (GeneID 55872)", "technical replicate": "3", "viability, normalised (%)": 61.7, "Outcome": "active"}
{"target": "CHD9 (GeneID 80205)", "technical replicate": "1", "viability, normalised (%)": 83.1, "Outcome": "inactive"}
{"target": "CHD9 (GeneID 80205)", "technical replicate": "2", "viability, normalised (%)": 74.9, "Outcome": "active"}
{"target": "CHD9 (GeneID 80205)", "technical replicate": "3", "viability, normalised (%)": 93.8, "Outcome": "inactive"}
